Laboratory results: PubChem BioAssay AID686938 (Drosophila RNAi Screening Center, 2013)

Purpose: 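Knock-downs reducing store-operated calcium influx in Drosophila cells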 (primary screen)
System: Drosophila S2R+ cells
Reagent: long dsRNA against Drosophila genes, about 0.25 µg dsRNA per well, roughly 10,000 cells
Time to read-out: 5 days of knock-down before the calcium assay
Challenge: thapsigargin (SERCA pump blocker) to empty calcium stores; entry signal taken 4 min after adding it
Measured: 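Duplicate raw fluo-4 intensities per well from a plate reader, at rest and four minutes after thapsigargin emptied calcium stores; entry-to-rest ratio filled for only some wells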
Reading the numbers: calcium entry signal: higher = stronger calcium signal after store depletion; resting calcium signal: higher = higher resting calcium signal
Call rule: 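Hit if the duplicate-averaged plate z-score for entry over resting signal is under −3; wells with weak total dye signal (Fmax z < −2) or more than 5 off-targets removed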
Meaning of the calls: active = strongly reduced calcium entry; inactive = no strong reduction
The screen tested about 23,000 reagents; this is an unselected part of those that have a named target and a result. In the full data, 75 (0.33%) got an active call. 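Raw plate signals without normalisation; calls rest on plate z-scores that were not deposited; ratio present for only 364 wells.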 A plus sign joins genes that one reagent is predicted to hit. Not stated in the record: the dose of the treatment.

For Trm1 [DRSC02951], what was measured?
calcium entry signal, replicate 1 (fluorescence units): 4.12e7; resting calcium signal, replicate 1 (fluorescence units): 2.07e7; Call: inactive

With SPARC [DRSC14123], what does the deposit list?
calcium entry signal, replicate 1 (fluorescence units): 2.75e7; calcium entry signal, replicate 2 (fluorescence units): 4.69e7; resting calcium signal, replicate 1 (fluorescence units): 1.48e7; resting calcium signal, replicate 2 (fluorescence units): 2.06e7; Call: inactive

For CG15365 [DRSC18038], how do the results read?
calcium entry signal, replicate 1 (fluorescence units): 2.23e7; calcium entry signal, replicate 2 (fluorescence units): 2.59e7; resting calcium signal, replicate 1 (fluorescence units): 1.36e7; resting calcium signal, replicate 2 (fluorescence units): 1.52e7; Call: inactive

For CG15365 [DRSC23021], what was measured?
calcium entry signal, replicate 1 (fluorescence units): 4.80e7; calcium entry signal, replicate 2 (fluorescence units): 3.22e7; resting calcium signal, replicate 1 (fluorescence units): 2.20e7; resting calcium signal, replicate 2 (fluorescence units): 1.59e7; Call: inactive

Which result is listed for Rint1 [DRSC11010]?
calcium entry signal, replicate 1 (fluorescence units): 4.44e7; calcium entry signal, replicate 2 (fluorescence units): 3.49e7; resting calcium signal, replicate 1 (fluorescence units): 3.28e7; resting calcium signal, replicate 2 (fluorescence units): 1.68e7; Call: inactive

For arm [DRSC18738], what does the deposit list?
calcium entry signal, replicate 1 (fluorescence units): 4.30e7; calcium entry signal, replicate 2 (fluorescence units): 4.13e7; resting calcium signal, replicate 1 (fluorescence units): 1.93e7; resting calcium signal, replicate 2 (fluorescence units): 1.94e7; Call: inactive

How did the screen score CG17931 + CG42446 [DRSC15293]?
calcium entry signal, replicate 1 (fluorescence units): 3.51e7; calcium entry signal, replicate 2 (fluorescence units): 4.83e7; resting calcium signal, replicate 1 (fluorescence units): 1.76e7; resting calcium signal, replicate 2 (fluorescence units): 7.68e7; Call: inactive

With CG8399 [DRSC07163], how do the results read?
calcium entry signal, replicate 1 (fluorescence units): 3.31e7; calcium entry signal, replicate 2 (fluorescence units): 3.35e7; resting calcium signal, replicate 1 (fluorescence units): 1.56e7; resting calcium signal, replicate 2 (fluorescence units): 1.68e7; Call: inactive

What did the screen give for CG5327 [DRSC06930]?
calcium entry signal, replicate 1 (fluorescence units): 5.75e7; calcium entry signal, replicate 2 (fluorescence units): 5.35e7; resting calcium signal, replicate 1 (fluorescence units): 2.54e7; resting calcium signal, replicate 2 (fluorescence units): 2.40e7; Call: inactive

A run of entries from the list above:
CG15365 [DRSC18038] — calcium entry signal, replicate 1 (fluorescence units) = 2.23e7; calcium entry signal, replicate 2 (fluorescence units) = 2.59e7; resting calcium signal, replicate 1 (fluorescence units) = 1.36e7; resting calcium signal, replicate 2 (fluorescence units) = 1.52e7; Call = inactive
CG15365 [DRSC23021] — calcium entry signal, replicate 1 (fluorescence units) = 4.80e7; calcium entry signal, replicate 2 (fluorescence units) = 3.22e7; resting calcium signal, replicate 1 (fluorescence units) = 2.20e7; resting calcium signal, replicate 2 (fluorescence units) = 1.59e7; Call = inactive

The list goes on:
With CG18262 [DRSC18149], what was measured?
calcium entry signal, replicate 1 (fluorescence units): 3.57e7; calcium entry signal, replicate 2 (fluorescence units): 3.46e7; resting calcium signal, replicate 1 (fluorescence units): 1.68e7; resting calcium signal, replicate 2 (fluorescence units): 1.42e7; Call: inactive

How did the screen score CG12065 [DRSC17798]?
calcium entry signal, replicate 1 (fluorescence units): 2.81e7; calcium entry signal, replicate 2 (fluorescence units): 3.57e7; resting calcium signal, replicate 1 (fluorescence units): 1.38e7; resting calcium signal, replicate 2 (fluorescence units): 1.60e7; Call: inactive

What is on record for CG12065 [DRSC17799]?
calcium entry signal, replicate 1 (fluorescence units): 3.87e7; calcium entry signal, replicate 2 (fluorescence units): 3.82e7; resting calcium signal, replicate 1 (fluorescence units): 1.96e7; resting calcium signal, replicate 2 (fluorescence units): 1.99e7; Call: inactive

With Pop1 [DRSC17739], what was measured?
calcium entry signal, replicate 1 (fluorescence units): 2.56e7; calcium entry signal, replicate 2 (fluorescence units): 4.10e7; resting calcium signal, replicate 1 (fluorescence units): 1.25e7; resting calcium signal, replicate 2 (fluorescence units): 1.74e7; Call: inactive

For CG31205 [DRSC13438], what was measured?
calcium entry signal, replicate 1 (fluorescence units): 4.04e7; calcium entry signal, replicate 2 (fluorescence units): 2.78e7; resting calcium signal, replicate 1 (fluorescence units): 2.12e7; resting calcium signal, replicate 2 (fluorescence units): 1.39e7; Call: inactive

With mRpS5 [DRSC21380], how do the results read?
calcium entry signal, replicate 1 (fluorescence units): 4.31e7; calcium entry signal, replicate 2 (fluorescence units): 3.60e7; resting calcium signal, replicate 1 (fluorescence units): 2.23e7; resting calcium signal, replicate 2 (fluorescence units): 1.55e7; Call: inactive

With Grip128 [DRSC20167], what was measured?
calcium entry signal, replicate 1 (fluorescence units): 2.34e7; calcium entry signal, replicate 2 (fluorescence units): 2.87e7; resting calcium signal, replicate 1 (fluorescence units): 1.15e7; resting calcium signal, replicate 2 (fluorescence units): 1.33e7; Call: inactive

What is on record for f [DRSC19174]?
calcium entry signal, replicate 1 (fluorescence units): 2.26e7; calcium entry signal, replicate 2 (fluorescence units): 2.04e7; resting calcium signal, replicate 1 (fluorescence units): 1.19e7; resting calcium signal, replicate 2 (fluorescence units): 1.22e7; Call: inactive

What is on record for f [DRSC19516]?
calcium entry signal, replicate 1 (fluorescence units): 3.61e7; calcium entry signal, replicate 2 (fluorescence units): 3.21e7; resting calcium signal, replicate 1 (fluorescence units): 1.82e7; resting calcium signal, replicate 2 (fluorescence units): 1.47e7; Call: inactive

What is on record for f [DRSC20331]?
calcium entry signal, replicate 1 (fluorescence units): 3.15e7; calcium entry signal, replicate 2 (fluorescence units): 2.85e7; resting calcium signal, replicate 1 (fluorescence units): 1.71e7; resting calcium signal, replicate 2 (fluorescence units): 1.50e7; Call: inactive

What did the screen give for PLCXD [DRSC02427]?
calcium entry signal, replicate 1 (fluorescence units): 3.66e7; calcium entry signal, replicate 2 (fluorescence units): 6.32e7; resting calcium signal, replicate 1 (fluorescence units): 1.73e7; resting calcium signal, replicate 2 (fluorescence units): 2.83e7; Call: inactive

For CG13907 [DRSC08377], how do the results read?
calcium entry signal, replicate 1 (fluorescence units): 2.64e7; calcium entry signal, replicate 2 (fluorescence units): 2.11e7; resting calcium signal, replicate 1 (fluorescence units): 1.30e7; resting calcium signal, replicate 2 (fluorescence units): 1.08e7; Call: inactive
